Measurements published in the supplement of paper PMC10373366.
Where a name gives a salt, the structure may show the parent alone. This is one part of the list. Single values are uncertain, as repeats are few or missing.

Columns and labels:
[1] = test system: A2780; assay: cell growth inhibition ratio vs untreated control (CCK8); higher = stronger inhibition of cell viability; settings: 10 µM; 48 h
Protocol: (§1)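 Natural product library (Topscience) screened at 10 µM final concentration for 48 h on ovarian cancer A2780 cells and patient-derived ovarian cancer cells (PDC) in 96-well plates; viability read by CCK8 and reported as inhibition ratio (%) relative to untreated control. Single-dose primary screen.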

[2] = test system: patient-derived ovarian cancer cells (PDC); assay: as above; settings: 10 µM; 48 h
Protocol: as §1

Structure (SMILES)	cell growth inhibition ratio [1]	cell growth inhibition ratio [2]
CC(C)=CCC[C@](C)(O[C@@H]1O[C@H](CO[C@@H]2OC[C@@H](O)[C@H](O)[C@H]2O)[C@@H](O)[C@H](O)[C@H]1O)[C@H]1CC[C@]2(C)[C@@H]1[C@H](O)C[C@@H]1[C@@]3(C)CC[C@H](O[C@@H]4O[C@H](CO)[C@@H](O)[C@H](O)[C@H]4O[C@@H]4O[C@H](CO)[C@@H](O)[C@H](O)[C@H]4O)C(C)(C)[C@@H]3CC[C@]12C [Ginsenoside Rb3]	12.8%	-1.51%
CCOc1ccc(Cc2nccc3cc(OCC)c(OCC)cc23)cc1OCC [Ethaverine hydrochloride]	58.5%	22.8%
C=C(C)[C@@H]1CC[C@]2(CO)CC[C@]3(C)[C@H](CC[C@@H]4[C@@]5(C)CC[C@H](O)C(C)(C)[C@@H]5CC[C@]43C)[C@@H]12 [Betulin]	-2.29%	13.3%
O=C(/C=C/C=C/c1ccc2c(c1)OCO2)N1CCCCC1 [Piperine]	4.23%	4.32%
C=C1CC[C@@H]2[C@](C)(CO)[C@H](O)CC[C@@]2(C)[C@H]1C/C=C1\C=COC1=O [Dehydroandrographolide]	18.8%	-2.26%
Cc1nc(C)c(C)nc1C [Ligustrazine hydrochloride]	10.5%	0.8%
C=C1C(=O)O[C@@H]2/C=C(\C)CC/C=C(\C)CC[C@@H]12 [Costunolide]	11.9%	9.67%
C[C@@H]1O[C@@H](O[C@H]2[C@H](O[C@H]3CC[C@@]4(C)[C@@H](CC[C@]5(C)[C@@H]4CC=C4[C@@H]6CC(C)(C)CC[C@]6(C(=O)O[C@@H]6O[C@H](CO[C@@H]7O[C@H](CO)[C@@H](O)[C@H](O)[C@H]7O)[C@@H](O)[C@H](O)[C@H]6O)CC[C@]45C)[C@]3(C)CO)OC[C@H](O)[C@@H]2O)[C@H](O)[C@H](O[C@@H]2O[C@H](CO)[C@@H](O[C@@H]3O[C@H](CO)[C@@H](O)[C@H](O)[C@H]3O)[C@H](O)[C@H]2O)[C@H]1O [Macranthoidin B]	7.79%	-5.06%
CC[C@@]1(O)C(=O)OCc2c1cc1n(c2=O)Cc2cc3cc(O)ccc3nc2-1 [10-Hydroxycamptothecin]	86.6%	76.7%
CC1C(=O)OC2C(O)C34C5CC(C(C)(C)C)C36C(OC(=O)C6O)OC4(C(=O)O5)C12O (stereo not given) [Ginkgolide B]	13.2%	-3.87%
O=c1c(O)c(-c2ccc(O)c(O)c2)oc2cc(O)cc(O)c12 [Quercetin Dihydrate]	-32.2%	7.98%
CNC[C@H](O)c1ccc(O)c(O)c1 [Epinephrine bitartrate]	2.57%	20.2%
C=C[C@H]1CN2CC[C@H]1C[C@H]2[C@H](O)c1ccnc2ccc(OC)cc12 [Quinine]	-17.3%	-4.42%
C=C1C(=O)O[C@@H]2C[C@@]3(C)CCCC(=C)[C@@H]3C[C@H]12 [Isoalantolactone]	38.9%	5.71%
O=c1c2cc(O[C@@H]3O[C@H](CO)[C@@H](O)[C@H](O)[C@H]3O)c(O)cc2oc2cc(O)c([C@@H]3O[C@H](CO)[C@@H](O)[C@H](O)[C@H]3O)c(O)c12 [Neomangiferin]	16.4%	-6.66%
CC(/C=C/C=C(\C)C(=O)O[C@@H]1O[C@H](CO)[C@@H](O)[C@H](O)[C@H]1O)=C\C=C\C=C(C)\C=C\C=C(/C)C(=O)O[C@@H]1O[C@H](CO[C@@H]2O[C@H](CO)[C@@H](O)[C@H](O)[C@H]2O)[C@@H](O)[C@H](O)[C@H]1O [Crocin II]	-18.7%	-3.84%
C[C@H](CCC(=O)O)[C@H]1CC[C@H]2[C@@H]3[C@@H](O)C[C@@H]4C[C@H](O)CC[C@]4(C)[C@H]3CC[C@]12C [Ursodeoxycholic acid]	-4.01%	-11.5%
C[C@H](CCC(=O)O)[C@H]1CC[C@H]2[C@@H]3CC[C@@H]4C[C@H](O)CC[C@]4(C)[C@H]3C[C@H](O)[C@]12C [Deoxycholic acid]	4.15%	-2.09%
CC(C)=C1C/C=C(\C)CC/C=C(\C)CC1=O [Germacrone]	-1.61%	5.44%
OC[C@H]1O[C@@H](Oc2ccc(O)cc2)[C@H](O)[C@@H](O)[C@@H]1O [Arbutin]	-10.2%	13.9%
CC1(C)CCC[C@](C)([C@H]2CC[C@]3(C)[C@@H]2[C@H](O)C[C@@H]2[C@@]4(C)CC[C@H](O)C(C)(C)[C@@H]4[C@H](O)C[C@]23C)O1 [Panaxtriol]	1.19%	-4.4%
O=C(O)CCCCC1CCSS1 (stereo not given) [Alphalipoic acid]	1.45%	6.9%
NCCCC(=O)O [4-Aminobutyric acid]	-9.54%	0.231%
COc1ccc(-c2cc(=O)c3c(OC)c(OC)c(OC)c(OC)c3o2)cc1 [Tangeretin]	32.5%	18.6%
CC1(C)CC[C@]2(C(=O)O[C@@H]3O[C@H](CO)[C@@H](O)[C@H](O)[C@H]3O)CC[C@]3(C)C(=CC[C@@H]4[C@@]5(C)CC[C@H](O[C@@H]6O[C@H](C(=O)O)[C@@H](O)[C@H](O)[C@H]6O[C@@H]6O[C@H](CO)[C@@H](O)[C@H](O)[C@H]6O)C(C)(C)[C@@H]5CC[C@]43C)[C@@H]2C1 [GinsenosideRo]	6.82%	-5.95%

Structure (SMILES)	cell growth inhibition ratio [1]	cell growth inhibition ratio [2]
CC(=O)O[C@]1(C)CC[C@@]23C[C@H]1C(C)(C)[C@@H]2CC[C@H]3C [Cedryl acetate]	5.94%	5.47%
COc1cc2c(cc1O)[C@@H](Cc1ccc(Oc3cc(C[C@H]4c5cc(O)c(OC)cc5CCN4C)ccc3O)cc1)N(C)CC2 [magnolin]	13.8%	3.71%
O=C(O)/C=C/c1ccc(O)cc1 [p-Coumaric acid]	-0.167%	-6.59%
O=C(/C=C/c1ccc(O)c(O)c1)O[C@H](Cc1ccc(O)c(O)c1)C(=O)O [Rosmarinic acid]	84.1%	63.4%
O=c1oc2c(O)c(O)cc3c(=O)oc4c(O)c(O)cc1c4c23 [Ellagic acid]	12.3%	-8.7%
CC1(C)CC[C@]2(C(=O)O)CC[C@]3(C)[C@H](C(=O)C=C4[C@@]5(C)C=C(C#N)C(=O)C(C)(C)[C@@H]5CC[C@]43C)[C@@H]2C1 [CDDO(Bardoxolone)]	92.4%	85.5%
COc1cc(C=O)cc(OC)c1O [syringaldehyde]	13.6%	-12.3%
CC(=O)O[C@@]12CO[C@@H]1C[C@H](O)[C@@]1(C)C(=O)[C@H](O)C3=C(C)[C@@H](OC(=O)[C@H](O)[C@@H](NC(=O)OC(C)(C)C)c4ccccc4)C[C@@](O)([C@@H](OC(=O)c4ccccc4)[C@H]21)C3(C)C [Docetaxel trihydrate]	82.9%	58.7%
O=C(O)/C=C/c1ccc(O)c(O)c1 [Caffeic Acid]	-5.78%	4.98%
CC1(C)[C@@H](O)CC[C@]2(C)[C@H]3CC=C4[C@@H]5C[C@@]6(C)C[C@H](OC6=O)[C@]5(C)CC[C@@]4(C)[C@]3(C)CC[C@@H]12 [Wilforlide A]	4.22%	-21.2%
Cn1c(=O)c2c(ncn2C)n(C)c1=O [Caffeine]	16.6%	0.3%
CCc1c2c(nc3ccc(O)cc13)-c1cc3c(c(=O)n1C2)COC(=O)[C@]3(O)CC	86.2%	72.9%
OCC1=C[C@@H](O)[C@@H]2C=CO[C@@H](O[C@@H]3O[C@H](CO)[C@@H](O)[C@H](O)[C@H]3O)[C@H]12 [Aucubin]	23%	5.84%
Oc1cc(O)cc(/C=C/c2ccc(O)c(O)c2)c1 [Piceatannol]	16.2%	-13.7%
COc1ccc2c(C)cc(=O)oc2c1 [7-Methoxy-4-methylcoumarin]	2.19%	-8.88%
C=C1C(=O)[C@]23[C@H](CC[C@@H]1[C@@H]2O)[C@]12CO[C@@]3(O)[C@H](O)[C@H]1C(C)(C)CC[C@@H]2O [Rubescensin A]	66.3%	26.5%
OC[C@H]1O[C@H](OC[C@H]2O[C@H](OC[C@H]3O[C@H](O[C@]4(CO)O[C@H](CO)[C@@H](O)[C@@H]4O)[C@H](O)[C@@H](O)[C@@H]3O)[C@H](O)[C@@H](O)[C@H]2O)[C@H](O)[C@@H](O)[C@H]1O [D-Stachyose tetrahydrate]	1.85%	-13.1%
COc1cc2ccc(=O)oc2c(O[C@@H]2O[C@H](CO)[C@@H](O)[C@H](O)[C@H]2O)c1O [Fraxin]	13.1%	5.93%
C[C@H]1O[C@@H](O[C@H]2CC[C@@]3(C)[C@@H](CC[C@]4(C)[C@@H]3C=CC3=C5CC(C)(C)CC[C@]5(CO)[C@H](O)C[C@]34C)[C@]2(C)CO)[C@H](O)[C@@H](O[C@@H]2O[C@H](CO)[C@@H](O)[C@H](O)[C@H]2O)[C@H]1O [Saikosaponin B2]	3.75%	10%
O=C(O)[C@H]1O[C@@H](Oc2cc3oc(-c4ccc(O)cc4)cc(=O)c3c(O)c2O)[C@H](O)[C@@H](O)[C@@H]1O [Breviscapin]	14%	8.25%
CCCCCCCCCCCCCCCCCCCCCCO [Behenic alcohol]	5.89%	-0.341%
C[C@H]1[C@H](C)CC[C@]2(C(=O)O)CC[C@]3(C)C(=CC[C@@H]4[C@@]5(C)C[C@@H](O)[C@H](O)[C@@](C)(CO)[C@@H]5[C@H](O)C[C@]43C)[C@H]12 [Madecassic acid]	5.03%	-21%
O=C(O)c1ccc(O)cc1 [4-Hydroxybenzoic acid]	-8.56%	7.49%
COc1cc(O)c(CC=C(C)C)c(O)c1C(=O)/C=C/c1ccc(O)cc1 [Xanthohumol]	43.9%	13.5%
O=Cc1ccc(OC2OC(CO)C(O)C(O)C2O)cc1 (stereo not given) [Helicid]	5.18%	-2.17%

Reprinted at random: three records from the list
Structure (SMILES)	cell growth inhibition ratio [1]	cell growth inhibition ratio [2]
CCCCCCCCCCCCCCCCCCCCCCO [Behenic alcohol]	5.89%	-0.341%
O=c1oc2c(O)c(O)cc3c(=O)oc4c(O)c(O)cc1c4c23 [Ellagic acid]	12.3%	-8.7%
O=C(O)c1ccc(O)cc1 [4-Hydroxybenzoic acid]	-8.56%	7.49%

Single records, from the list above:
O=C(O)/C=C/c1ccc(O)c(O)c1 [Caffeic Acid] in the list: cell growth inhibition ratio [1]: -5.78%; cell growth inhibition ratio [2]: 4.98%
C=C1C(=O)[C@]23[C@H](CC[C@@H]1[C@@H]2O)[C@]12CO[C@@]3(O)[C@H](O)[C@H]1C(C)(C)CC[C@@H]2O [Rubescensin A] in the list: cell growth inhibition ratio [1]: 66.3%; cell growth inhibition ratio [2]: 26.5%
